Values from PubChem BioAssay AID686937 (Drosophila RNAi Screening Center, 2013)
The deposit covers about 23,000 reagents; this is an unselected part of those with a known target gene and a result. 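Reduced-secretion tags in replicate 1 do not always agree with the z-scores; no criterion for assigning the tags was given.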 The record does not give: the amount of reagent.

- Assay: 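Genes in the fly needed for secretion of protein constitutively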 (primary screen)
- Cell system: Drosophila S2 cells expressing secreted horseradish peroxidase
- Reagents: long dsRNA against Drosophila genes
- Duration: about 5.5 days (5 days dsRNA, then 12 h reporter induction)
- Conditions: reporter expression induced after 5 days of dsRNA, read 12 h later; inducer not stated
- Detection: 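After 5 days of dsRNA and 12 h of reporter induction, medium peroxidase read by chemiluminescence and scored as per-plate z-score; higher values mean more reporter released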
- Direction: z-score: higher = more reporter secreted into medium

Gene | amplicon | z-score, replicate 1 | z-score, replicate 2 | phenotype, replicate 1
CG6472 | DRSC06989 | 0.31 | 0.26 | –
CG33757 | DRSC05159 | -0.33 | – | –
Nepl9 (Neprilysin-like 9) | DRSC02255 | 0.41 | 0.3 | –
CG6508 | DRSC02963 | -0.04 | 0.02 | –
CG11964 | DRSC14447 | 0.16 | 0.3 | –
CG2225 | DRSC03722 | 0.13 | 0.11 | –
CG2225 | DRSC03723 | 0.17 | 0.36 | –
Abcd3 (ATP binding cassette subfamily D member 3) | DRSC19488 | -0.33 | 0.48 | –
hoka | DRSC08313 | 0.57 | 0.29 | –
Abd-B (Abdominal B) | DRSC14098 | -0.04 | 0.03 | –
Abd-B (Abdominal B) | DRSC14337 | -0.22 | 0.32 | –
Nepl14 (Neprilysin-like 14) | DRSC15631 | 0.07 | 0.22 | –
Scgdelta (Sarcoglycan delta) | DRSC18544 | 0.27 | 0.3 | –
Adf1 (Adh transcription factor 1) | DRSC04941 | -0.31 | – | –
Adf1 (Adh transcription factor 1) | DRSC04963 | 0.26 | 0.23 | –
DIP-eta (Dpr-interacting protein eta) | DRSC02342 | -7.69 | 0.08 | reduced secretion
CG14383 | DRSC14841 | 0.38 | 0.22 | –
CG15139 (retired record) | DRSC02439 | -0.09 | -0.27 | –
KdelR (KDEL receptor) | DRSC03353 | -1.61 | -1.56 | reduced secretion
ppan (peter pan) | DRSC17030 | -0.18 | -0.27 | –
CG33189 | DRSC21427 | -0.09 | -0.2 | –
Tdrd3 (Tudor domain containing 3) | DRSC10016 | 0.1 | 0.33 | –
arr (arrow) | DRSC07451 | 0.33 | 0.27 | –
CG1024 | DRSC12496 | -0.07 | -0.02 | –
CG34225 | DRSC05270 | 0.1 | 0.25 | –
Est-P (Esterase P) | DRSC11163 | 0.13 | 0.12 | –
CG15212 | DRSC10212 | 0.31 | 0.16 | –
Noc1 (Nucleolar complex protein 1) | DRSC10921 | 0.16 | -0.14 | –
Gr58b (Gustatory receptor 58b) | DRSC04140 | 0.15 | 0.45 | –
CG7423 | DRSC20044 | 0.64 | 0.38 | –
Tapdelta (Translocon-associated protein delta) | DRSC05946 | 0.45 | 0.32 | –
Gbeta13F (G protein beta subunit 13F) | DRSC20247 | 0.37 | 0.2 | –
CG32260 | DRSC08084 | 0.16 | 0.17 | –
Ercc1 | DRSC07424 | -0.36 | -1.29 | –
Nopp140 | DRSC11872 | -0.01 | 0.03 | –
CR17567 (retired record) | DRSC02627 | -0.01 | 0.29 | –
CR17567 (retired record) | DRSC22537 | 0.27 | 0 | –
CG10621 | DRSC02078 | 0.17 | -0.07 | –
CG13991 | DRSC02323 | 0.19 | 0.26 | –
CG13998 | DRSC02330 | 0.42 | 0.2 | –
Akh (Adipokinetic hormone) | DRSC08138 | 0.03 | 0.17 | –
CG5639 | DRSC15851 | 0.32 | 0.5 | –
witty (without maturity) | DRSC02378 | 0.12 | 0.3 | –
witty (without maturity) | DRSC21650 | -0.26 | 0.01 | –
Naglu (N-acetyl-alpha-glucosaminidase) | DRSC02267 | 0.21 | 0.23 | –
CG15322 | DRSC20680 | -1.27 | 0.09 | –
Axud1 (AXIN1 up-regulated 1) | DRSC00270 | 0.16 | 0.11 | –
Phf5a (PHD finger protein 5a) | DRSC03261 | -0.92 | -0.32 | –
CG3618 | DRSC11746 | 0.24 | 0.09 | –
CG13022 | DRSC09902 | 0.3 | 0.41 | –
mlt (retired record) | DRSC06120 | 0.29 | 0.31 | –
Acox57D-d (acyl-Coenzyme A oxidase at 57D distal) | DRSC04561 | 0.26 | 0.15 | –
Jon66Cii (Jonah 66Cii) | DRSC10778 | 0.27 | 0.5 | –
CG10333 | DRSC02036 | -1.51 | -0.64 | reduced secretion
Den1 (Deneddylase 1) | DRSC07195 | 0.33 | 0.18 | –
Prosalpha6 (Proteasome alpha6 subunit) | DRSC03401 | -6.34 | -6.61 | reduced secretion

Part of the list above, limited to “z-score, replicate 1”:
Nopp140 [DRSC11872] = -0.01
CR17567 (retired record) [DRSC02627] = -0.01
CR17567 (retired record) [DRSC22537] = 0.27
CG10621 [DRSC02078] = 0.17
CG13991 [DRSC02323] = 0.19
CG13998 [DRSC02330] = 0.42
